Results: patent US20260083851A1 (AVILAR THERAPEUTICS, INC., priority 2022, published 2026)
pKd: −log10 of the molar value. The structures given here were assigned with low confidence; some may be wrong.

By UniProt entry, the sequences of proteins in these tests, tags left out.
UniProt P07306, whole entry: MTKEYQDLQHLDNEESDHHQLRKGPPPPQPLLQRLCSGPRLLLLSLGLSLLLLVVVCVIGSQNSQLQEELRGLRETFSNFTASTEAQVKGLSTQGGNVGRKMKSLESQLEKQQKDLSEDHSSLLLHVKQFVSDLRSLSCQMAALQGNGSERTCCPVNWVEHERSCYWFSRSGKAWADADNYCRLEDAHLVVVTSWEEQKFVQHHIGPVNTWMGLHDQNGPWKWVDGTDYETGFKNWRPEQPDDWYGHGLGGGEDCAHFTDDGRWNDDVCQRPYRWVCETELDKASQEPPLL

Target: ASGP receptor (biotinylated ASGPR) (Homo sapiens, UniProt P07306)
Format: binding
Details: read-out: ASGPR KD; SPR, Biacore 8K, 25° C.; Table 1A

**Q.** With `[N-]=[N+]=NCCCCCC(=O)NC(COCCC(=O)NCCOCCOCCOCCOC[C@H]1OC[C@H](Nc2cncc(C(F)(F)F)n2)[C@@H](O)[C@H]1O)COCCC(=O)NCCOCCOCCOCCOC[C@H]1OC[C@H](Nc2cncc(C(F)(F)F)n2)[C@@H](O)[C@H]1O` as the compound, how does the pKd read?
**A.** > 5.00

**Q.** `O[C@@H]1[C@H](O)[C@@H](Nc2cncc(C(F)(F)F)n2)CO[C@@H]1CN1CCN(CC2CCNCC2)CC1` was tested. Which pKd did it give?
**A.** > 5.00

**Q.** With `N#Cc1cc(C(=O)NC[C@H]2OC[C@H](Nc3cncc(C(F)(F)F)n3)[C@@H](O)[C@H]2O)[nH]n1` as the compound, how does the pKd read?
**A.** > 5.00

**Q.** How did the pKd turn out when `C[C@H](NC[C@H]1OC[C@H](Nc2cncc(C(F)(F)F)n2)[C@@H](O)[C@H]1O)c1ncccn1` (single isomer, unassigned) was run?
**A.** > 5.00

**Q.** How did the pKd turn out when `C[C@@H](NC[C@H]1OC[C@H](Nc2cncc(C(F)(F)F)n2)[C@@H](O)[C@H]1O)c1ncccn1` (single isomer, unassigned) was run?
**A.** > 5.00

Same assay, conditions: read-out: ASGPR KD; SPR, Biacore 8K, 25° C.; Table 1C

**Q.** `C#C[C@H]1OC[C@H](Nc2cncc(C(F)(F)F)n2)[C@@H](O)[C@H]1O` was tested. Which pKd did it give?
**A.** > 5.00
